Reference: article PMC7463232
No constants are given. Whether binding was seen depends on the method and setting. In cells and extracts the contact can be indirect. Some binding calls cover weakened binding; strength is not graded here.

By UniProt entry, the sequences of proteins in these tests, tags left out.
UniProt Q9Y6R4: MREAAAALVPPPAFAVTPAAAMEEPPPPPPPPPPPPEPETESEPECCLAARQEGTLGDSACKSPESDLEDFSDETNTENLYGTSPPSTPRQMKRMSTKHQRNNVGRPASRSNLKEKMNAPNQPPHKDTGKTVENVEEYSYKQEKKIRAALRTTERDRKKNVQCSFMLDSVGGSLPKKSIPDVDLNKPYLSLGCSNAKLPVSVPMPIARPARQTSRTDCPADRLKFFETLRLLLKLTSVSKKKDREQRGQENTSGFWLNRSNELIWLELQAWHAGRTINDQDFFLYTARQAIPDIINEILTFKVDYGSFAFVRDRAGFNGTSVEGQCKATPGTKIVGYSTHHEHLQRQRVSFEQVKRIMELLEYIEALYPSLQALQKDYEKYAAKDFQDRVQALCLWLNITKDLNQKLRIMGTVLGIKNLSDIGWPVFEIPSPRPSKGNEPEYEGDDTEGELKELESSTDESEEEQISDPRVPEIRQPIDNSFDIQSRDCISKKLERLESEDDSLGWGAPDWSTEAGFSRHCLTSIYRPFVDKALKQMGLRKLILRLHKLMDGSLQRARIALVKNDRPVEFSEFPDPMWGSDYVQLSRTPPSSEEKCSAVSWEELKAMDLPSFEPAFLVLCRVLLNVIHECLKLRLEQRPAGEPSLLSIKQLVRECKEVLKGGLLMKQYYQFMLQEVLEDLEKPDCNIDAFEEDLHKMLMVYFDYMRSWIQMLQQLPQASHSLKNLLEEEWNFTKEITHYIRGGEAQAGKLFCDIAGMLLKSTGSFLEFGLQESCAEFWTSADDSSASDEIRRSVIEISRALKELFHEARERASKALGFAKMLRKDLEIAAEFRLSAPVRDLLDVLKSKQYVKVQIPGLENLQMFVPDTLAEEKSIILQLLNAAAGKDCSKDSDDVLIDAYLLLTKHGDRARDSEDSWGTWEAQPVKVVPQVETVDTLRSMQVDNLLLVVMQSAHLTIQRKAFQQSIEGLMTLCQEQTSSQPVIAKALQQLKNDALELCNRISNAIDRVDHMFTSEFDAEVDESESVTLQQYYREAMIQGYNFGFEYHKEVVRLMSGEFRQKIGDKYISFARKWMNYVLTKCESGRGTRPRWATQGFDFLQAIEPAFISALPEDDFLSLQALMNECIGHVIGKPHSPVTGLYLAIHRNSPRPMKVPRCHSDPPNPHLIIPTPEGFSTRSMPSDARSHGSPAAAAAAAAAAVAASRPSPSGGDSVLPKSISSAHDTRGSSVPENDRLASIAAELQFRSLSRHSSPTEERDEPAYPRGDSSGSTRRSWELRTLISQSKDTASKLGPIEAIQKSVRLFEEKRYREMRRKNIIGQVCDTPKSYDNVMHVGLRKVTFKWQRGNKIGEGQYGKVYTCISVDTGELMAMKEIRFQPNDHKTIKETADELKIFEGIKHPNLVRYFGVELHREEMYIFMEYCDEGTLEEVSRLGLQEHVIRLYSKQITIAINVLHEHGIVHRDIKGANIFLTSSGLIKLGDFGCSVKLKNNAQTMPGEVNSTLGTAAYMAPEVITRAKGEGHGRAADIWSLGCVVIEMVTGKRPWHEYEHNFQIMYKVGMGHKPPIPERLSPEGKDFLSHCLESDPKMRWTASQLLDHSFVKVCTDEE

Molecular target: T1, Growth arrest and DNA damage inducible beta (GADD45B) (human) (UniProt O75293)
T1 sequence: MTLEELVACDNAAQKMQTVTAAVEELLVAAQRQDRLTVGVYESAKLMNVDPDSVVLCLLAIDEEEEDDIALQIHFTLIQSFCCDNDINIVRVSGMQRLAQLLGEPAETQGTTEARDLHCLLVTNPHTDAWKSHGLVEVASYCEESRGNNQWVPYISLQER
Test: co-IP; GADD45B primary antibody (50 µg) covalently coupled to resin (Pierce Co-IP Kit), incubated with 250 µL cell lysate overnight at 4 °C, eluted, western blotting; EC109 cells overexpressing GADD45B or treated with SFE (20 µM)

Substance: MAP3K4 (from UniProt Q9Y6R4 1-1608)
- binding: binds
